PubChem BioAssay AID624495 (National Center for Advancing Translational Sciences (NCATS), 2012)
The source calls these results inconclusive, neither active nor inactive. The call rests on the fitted dose curve; in most records, active means well fitted inhibition curve with a large enough effect; inconclusive means small, poorly fitted or top-dose-only effect, or another doubt; inactive means flat fitted curve, though single readings scatter.

By UniProt entry, the sequences of proteins in these tests, tags left out.
UniProt P14416, whole entry, looked up: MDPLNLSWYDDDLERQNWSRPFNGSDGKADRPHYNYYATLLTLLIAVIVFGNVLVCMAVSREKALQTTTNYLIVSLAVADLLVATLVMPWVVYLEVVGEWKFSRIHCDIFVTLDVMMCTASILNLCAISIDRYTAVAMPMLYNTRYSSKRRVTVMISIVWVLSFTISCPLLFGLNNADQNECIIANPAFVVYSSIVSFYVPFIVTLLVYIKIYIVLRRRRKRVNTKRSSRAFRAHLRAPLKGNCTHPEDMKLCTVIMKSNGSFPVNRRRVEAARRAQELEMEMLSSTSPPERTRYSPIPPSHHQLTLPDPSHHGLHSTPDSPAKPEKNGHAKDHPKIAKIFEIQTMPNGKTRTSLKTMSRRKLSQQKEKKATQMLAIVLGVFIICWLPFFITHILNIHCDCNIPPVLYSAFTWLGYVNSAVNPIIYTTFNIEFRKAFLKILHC

biological target: D(2) dopamine receptor (Homo sapiens) (UniProt P14416); assay: HTS Assay for Allosteric Antagonists of the Human D2 Dopamine Receptor: SAR in D2 Beta Arrestin Assay; settings: DiscoveRx PathHunter D2 beta-arrestin recruitment, luminescence; at 57.1 µM (top of the series)
Description: There is great interest in identifying small molecule ligands for G-protein coupled receptors (GPCRs) as nearly 50% of all FDA-approved drugs target these important receptor proteins. […] Amongst the dopamine receptors (DARs), the D2 is arguably one of the most validated drug targets in neurology and psychiatry. For instance, all receptor-based antiparkinsonian drugs primarily work via stimulating the D2 DAR, whereas all FDA-approved antipsychotic agents are antagonists of this receptor. The D2 DAR is also therapeutically targeted in other disorders such as restless legs syndrome, tardive dyskinesia, Tourette's syndrome, and hyperprolactinemia. […] This is an orthogonal assay to test the lead compounds against the D2 receptor, using a beta arrestin assay. NIH Molecular Libraries Probe Production Network [MLPCN] NIH Chemical Genomics Center [NCGC] […]
DiscoveRx D2 cells were thawed from frozen stock and seeded at 2,100 cells/ 3 uL/well media (DiscoveRx Plating Reagent 2) with MultiDrop Combi dispenser (Thermo Scientific, Logan, UT) onto white tissue culture treated 1536-well Aurora plates (Brooks Automation, Chelmsford, MA) and allowed to attach overnight at 37 deg C, 5% CO2. […] The plates were incubated at ambient temperature for 1 hour and then the luminescent signal was read on ViewLux plate reader (PerkinElmer, Waltham, MA).

Row | Structure (SMILES) | activity change, negative = inhibition
1 | CN1C(=O)c2ccccc2[S@@](=O)c2ccc(C(=O)NCCc3cccs3)cc21 | inconclusive: 0.364% [inhibitor]
